# Data published in patent publication US5521088A, “Alcohol acetyltransferase genes and use thereof” (Kirin Beer Kabushiki Kaisha, priority 1992, dated 1996).
# Entries after “also recorded” stand apart in the source; their conditions may differ. At least one structure is not confirmed: it was looked up by name or label, or the drawing left a doubt.
# Biological target: T1, AATase (Saccharomyces cerevisiae, UniProt P40353, N391K/T84I)
# T1 construct: culturing yeast cells of Saccharomyces cerevisiae KYOKAI No. 7 and recovering and purifying the crude enzyme; endogenous in cells; host or cells: Saccharomyces cerevisiae KYOKAI No. 7 (sake yeast)
# T1 sequence (P40353 1-525 T84I/N391K): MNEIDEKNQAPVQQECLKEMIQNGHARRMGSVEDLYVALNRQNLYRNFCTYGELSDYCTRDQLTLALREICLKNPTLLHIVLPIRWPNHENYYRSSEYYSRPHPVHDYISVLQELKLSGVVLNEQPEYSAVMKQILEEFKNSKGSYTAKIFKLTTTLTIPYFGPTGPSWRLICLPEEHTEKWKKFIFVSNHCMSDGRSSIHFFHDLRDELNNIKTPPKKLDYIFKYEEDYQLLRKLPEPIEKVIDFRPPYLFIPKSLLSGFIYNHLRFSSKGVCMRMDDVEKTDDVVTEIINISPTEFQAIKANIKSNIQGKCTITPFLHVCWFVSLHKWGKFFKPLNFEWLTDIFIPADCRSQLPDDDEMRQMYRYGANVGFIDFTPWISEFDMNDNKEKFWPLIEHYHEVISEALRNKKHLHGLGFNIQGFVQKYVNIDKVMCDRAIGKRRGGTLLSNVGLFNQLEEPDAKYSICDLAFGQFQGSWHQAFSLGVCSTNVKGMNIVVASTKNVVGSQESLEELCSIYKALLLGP
# Type: biochemical
structure (smiles),measurement,value
"O=C(O)c1cc(SSc2ccc([N+](=O)[O-])c(C(=O)O)c2)ccc1[N+](=O)[O-] [DTNB, Dithiobis(2nitrobenzoic acid)]",Inhibition of the enzyme (in words),inhibited strongly; also recorded: intensively inhibited
